Measured values from PMC7015941.
Results are given in words; binding and its absence hold for the method and conditions named. Binding seen in cells or lysates may run through a third protein. Some results given as binding are weak or reduced against the parent protein; the word gives no strength.

Protein sequences, listed by entry. Tags and fused reporters are not part of them.
UniProt O75832: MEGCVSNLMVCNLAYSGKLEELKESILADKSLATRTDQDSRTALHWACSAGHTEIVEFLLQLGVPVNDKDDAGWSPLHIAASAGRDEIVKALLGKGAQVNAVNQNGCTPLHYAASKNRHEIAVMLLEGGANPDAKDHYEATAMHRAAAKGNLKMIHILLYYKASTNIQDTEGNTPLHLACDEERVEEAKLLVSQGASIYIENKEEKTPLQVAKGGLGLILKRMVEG
UniProt P40763: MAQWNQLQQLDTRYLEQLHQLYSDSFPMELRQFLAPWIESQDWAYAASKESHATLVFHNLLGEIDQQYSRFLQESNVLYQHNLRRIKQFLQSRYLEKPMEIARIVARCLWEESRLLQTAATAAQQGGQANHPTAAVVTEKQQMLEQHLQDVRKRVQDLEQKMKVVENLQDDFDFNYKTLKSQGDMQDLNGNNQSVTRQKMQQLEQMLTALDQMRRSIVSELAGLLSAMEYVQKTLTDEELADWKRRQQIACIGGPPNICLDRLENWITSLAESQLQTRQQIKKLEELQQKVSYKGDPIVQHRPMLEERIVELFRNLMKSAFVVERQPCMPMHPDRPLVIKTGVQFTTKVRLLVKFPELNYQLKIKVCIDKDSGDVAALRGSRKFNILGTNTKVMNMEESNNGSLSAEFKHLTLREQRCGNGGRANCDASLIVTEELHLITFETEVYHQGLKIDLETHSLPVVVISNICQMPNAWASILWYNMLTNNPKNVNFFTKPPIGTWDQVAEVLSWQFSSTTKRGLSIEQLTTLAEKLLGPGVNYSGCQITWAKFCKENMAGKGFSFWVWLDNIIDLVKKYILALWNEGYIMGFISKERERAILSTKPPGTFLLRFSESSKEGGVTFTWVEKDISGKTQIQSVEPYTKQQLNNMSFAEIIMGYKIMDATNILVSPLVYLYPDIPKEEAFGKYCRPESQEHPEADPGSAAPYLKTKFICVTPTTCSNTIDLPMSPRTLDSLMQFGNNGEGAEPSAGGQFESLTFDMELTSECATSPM

Molecular target: gankyrin (human (endogenous in 786-O)) (UniProt O75832)
Assay: co-IP; endogenous proteins in 786-O cells, IgG as control, detected by western blot; also in cells treated with human recombinant CCL24 (5 ng/ml, 3 days) without or with SB328437 (10 ng/ml)

binding: binds
Substance: STAT3 (from UniProt P40763 1-770)
